Consider one substance from patent US20220064331A1.

Sequences of proteins named here, by UniProt entry; tags and fusion partners are left off. A change or cut given only in a name is not applied to a line headed by its entry. Residues count along the entry.
UniProt Q86Z14: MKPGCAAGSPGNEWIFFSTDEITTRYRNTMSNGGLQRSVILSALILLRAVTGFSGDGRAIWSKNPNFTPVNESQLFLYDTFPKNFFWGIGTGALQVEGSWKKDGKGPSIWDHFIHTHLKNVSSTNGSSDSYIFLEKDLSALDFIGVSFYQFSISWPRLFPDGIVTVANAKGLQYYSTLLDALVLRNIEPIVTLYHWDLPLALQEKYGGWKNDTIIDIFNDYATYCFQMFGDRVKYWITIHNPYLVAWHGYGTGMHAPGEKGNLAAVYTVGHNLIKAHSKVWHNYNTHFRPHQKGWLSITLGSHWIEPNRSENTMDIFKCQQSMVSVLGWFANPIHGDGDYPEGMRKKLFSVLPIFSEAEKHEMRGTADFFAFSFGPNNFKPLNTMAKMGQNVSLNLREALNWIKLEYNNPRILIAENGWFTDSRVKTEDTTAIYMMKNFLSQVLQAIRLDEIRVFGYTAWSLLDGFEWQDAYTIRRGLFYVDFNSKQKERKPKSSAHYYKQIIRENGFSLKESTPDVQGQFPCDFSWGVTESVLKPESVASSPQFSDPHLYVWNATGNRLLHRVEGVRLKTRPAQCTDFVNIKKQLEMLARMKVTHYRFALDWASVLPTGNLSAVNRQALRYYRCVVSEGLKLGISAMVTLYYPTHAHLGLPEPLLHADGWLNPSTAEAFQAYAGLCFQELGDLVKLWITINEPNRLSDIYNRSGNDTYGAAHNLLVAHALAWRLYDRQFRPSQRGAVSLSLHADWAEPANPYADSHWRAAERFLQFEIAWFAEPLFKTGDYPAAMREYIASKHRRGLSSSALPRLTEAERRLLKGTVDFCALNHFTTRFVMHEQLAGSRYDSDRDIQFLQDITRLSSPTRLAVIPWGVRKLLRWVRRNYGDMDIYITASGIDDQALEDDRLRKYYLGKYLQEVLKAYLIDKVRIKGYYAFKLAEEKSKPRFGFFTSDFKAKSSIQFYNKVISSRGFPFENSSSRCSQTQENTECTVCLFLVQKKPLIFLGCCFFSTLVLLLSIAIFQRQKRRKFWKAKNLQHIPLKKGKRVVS
UniProt O95750, residues 25-216: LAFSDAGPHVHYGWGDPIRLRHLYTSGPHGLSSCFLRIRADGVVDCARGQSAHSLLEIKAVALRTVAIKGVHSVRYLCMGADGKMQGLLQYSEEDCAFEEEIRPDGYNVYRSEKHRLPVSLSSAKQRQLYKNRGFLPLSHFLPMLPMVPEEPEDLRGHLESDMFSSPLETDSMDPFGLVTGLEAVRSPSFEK

These are yes or no findings as the source states them, for the method shown. Some binding calls cover weakened binding; strength is not graded here.

Experiment [1] has as its target hKLB-ECD-HIS protein (human) (UniProt Q86Z14). Kind of experiment: FGF protein on KLB-ECD held by BsAb10 (FIG. 14A).
For experiment [2] the target is unchanged. Briefly: KLB-ECD captured on immobilised BsAb10, then FGF19 at 0.2, 0.8 or 2 µM (traces not keyed to the concentrations); SPR per legend paragraph 67, bio-layer interferometry per paragraph 416.

“FGF19 (from UniProt O95750 25-216) (ligand)”: the binding entry in experiment [1] and in experiment [2] was “binds” in each case.
